Some of the results follow.
target: T1, OsSMF1 (Oryza sativa, UniProt Q6ZLB0 1-436); assay: protein-binding microarray (RPBM); PBS, 2% BSA, 51.3 ng/ul salmon testes DNA, 50 uM zinc acetate, 200 nM TF, 25 C, 1 h; high values mean tight binding; details: protein: recombinant; tags: N-terminal polyhistidine and DsRed monomer fusion (pET32a); chain copies: 2; label: CyDye5-dUTP incorporated in the synthesized complementary strand; 3' TTTTT single-stranded linker to array surface; dsDNA, one strand shown
T1 sequence: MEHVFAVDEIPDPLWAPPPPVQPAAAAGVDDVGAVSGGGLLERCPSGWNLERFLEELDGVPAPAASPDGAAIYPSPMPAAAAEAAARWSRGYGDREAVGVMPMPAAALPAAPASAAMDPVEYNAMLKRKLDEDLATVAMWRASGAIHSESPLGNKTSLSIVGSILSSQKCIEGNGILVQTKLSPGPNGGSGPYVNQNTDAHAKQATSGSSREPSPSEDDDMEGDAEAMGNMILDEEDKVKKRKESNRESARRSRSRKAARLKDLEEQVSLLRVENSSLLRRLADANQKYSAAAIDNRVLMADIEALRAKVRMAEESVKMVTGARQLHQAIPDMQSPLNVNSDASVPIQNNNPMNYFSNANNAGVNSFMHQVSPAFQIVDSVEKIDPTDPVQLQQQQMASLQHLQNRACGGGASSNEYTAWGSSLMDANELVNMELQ
Outline: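 Binding signal is reported as fluorescence intensity per feature (arbitrary units) from an Axon 4000B scanner. Incubation used 200 nM of each Ni–NTA-purified, N-terminally polyhistidine- and DsRed-fused transcription factor from E. coli BL21-CodonPlus on a double-stranded custom Agilent array for 1 h at 25 °C, with 50 µM zinc acetate in the buffer, followed by washing.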

| Sequence | binding signal |
| --- | --- |
| TTTTCGATAGATGACGCTGTTGAATTTGGTACACATTTGACGGAGTCACCTAGTGCAG | 3480 fluorescence intensity (a.u.) |
| TGTTTTAAAATTCTGTAGTGGTGACGGTGACTCCAACCCTCGGAGTCACCTAGTGCAG | 5920 fluorescence intensity (a.u.) |
| GTACAGGTGAGTGCCCCACGTGTCACGTTTCTTGCCACGTCGGAGTCACCTAGTGCAG | 29500 fluorescence intensity (a.u.) |
| TGCTGATGGTCAGGCTTGTTACAGTTGCAGCTGCTAAGGTCGGAGTCACCTAGTGCAG | 7200 fluorescence intensity (a.u.) |
| AATATTCTCTGTCTCGGTGTGGTGTCTCTCCTCTGACGGCCGGAGTCACCTAGTGCAG | 4810 fluorescence intensity (a.u.) |
| CAGCCAAACCCCACGCCACGCACACACACACCCATCTCTCCGGAGTCACCTAGTGCAG | 5580 fluorescence intensity (a.u.) |
| CTTCCCTACGACATCGAGGGCGTCATCGAGTGAGTAGTGTCGGAGTCACCTAGTGCAG | 3610 fluorescence intensity (a.u.) |
| GCTCCCTCGACGACCTCGTCAAGTCCCTCCGCGCCGACCCCGGAGTCACCTAGTGCAG | 4170 fluorescence intensity (a.u.) |
| CCCCGCCGACCCCGCCGCCGCCCGCTGCTCCTTCGACCAGCGGAGTCACCTAGTGCAG | 3150 fluorescence intensity (a.u.) |
| GCAACCACCAGCTGACAGGGCGTTTTCTCACGTCGCATTTCGGAGTCACCTAGTGCAG | 4440 fluorescence intensity (a.u.) |
| CCAGCCGCGCGCGCGCACGCACGCCGCCGTCGTGACGTCGCGGAGTCACCTAGTGCAG | 3780 fluorescence intensity (a.u.) |
| GCCACCTCGCATCGCCGTGCCTGATGTTGCCATCGTGTTGCGGAGTCACCTAGTGCAG | 4450 fluorescence intensity (a.u.) |
| AACCCTAAGCCTCACCTATATAATGCTCCACCACGCCGCCCGGAGTCACCTAGTGCAG | 4360 fluorescence intensity (a.u.) |
| AGCCGTCCGATCGTCCGCCACGTCATCGATCCGCGTGACTCGGAGTCACCTAGTGCAG | 27100 fluorescence intensity (a.u.) |
| GATTGTTATGTCACTTGTCTGTGGATCAAGTCTCAAGCCCCGGAGTCACCTAGTGCAG | 3560 fluorescence intensity (a.u.) |
| AATACCCTCCTCTCGCCTCGCGAAACCCCAGAACCACGCCCGGAGTCACCTAGTGCAG | 3650 fluorescence intensity (a.u.) |
| TTTGTCTCGCAATTTACACGTAAACTGTGTCATTGATTTTCGGAGTCACCTAGTGCAG | 4260 fluorescence intensity (a.u.) |
| TTATATCCAGATCACATCTAGTATTAGGCTGTGTTCGGCGCGGAGTCACCTAGTGCAG | 32800 fluorescence intensity (a.u.) |
| AGCTCTGGCCGCCGCTCCTTCCTCTCCCGTCATGCGCATGCGGAGTCACCTAGTGCAG | 3850 fluorescence intensity (a.u.) |
| TTTTATCCAGTCCGATTTTCGTCCTTGACTGCAAAACCGGCGGAGTCACCTAGTGCAG | 3270 fluorescence intensity (a.u.) |
| ATTAGATGATGTGGCGACTACGTGGCTAATTTGACTCAGTCGGAGTCACCTAGTGCAG | 18400 fluorescence intensity (a.u.) |

| Sequence | binding signal |
| --- | --- |
| TGCGCCGTCTGCGTCAGCGTGCCTCGTCGCAGTCGCAGGCCGGAGTCACCTAGTGCAG | 6400 fluorescence intensity (a.u.) |
| TTAGACAGTGACCCATCAACACTTGGCCAACGCCAAGTCGCGGAGTCACCTAGTGCAG | 3650 fluorescence intensity (a.u.) |
| CGCGACGCGACCCGGCCCCGCGACGTGGACGCCCCGGACGCGGAGTCACCTAGTGCAG | 4590 fluorescence intensity (a.u.) |
| ACTGACCCGTCCGTCCTCACCGTCGCACAGTGTGAGTGAGCGGAGTCACCTAGTGCAG | 3370 fluorescence intensity (a.u.) |
| GTGGGTGGTTGGGCCTGTTGCAACGTGGTATAGCGTTGGACGGAGTCACCTAGTGCAG | 4450 fluorescence intensity (a.u.) |
| AATCTTATTCCGTCGGTGGTGATTTCGTCAATCTCCCAACCGGAGTCACCTAGTGCAG | 3160 fluorescence intensity (a.u.) |
| ACTATCTTCAACTAAGAATGACGCAATTGCACCCCAAACACGGAGTCACCTAGTGCAG | 5020 fluorescence intensity (a.u.) |
| CTCTTCTCCTCCAAGGATGGGGAGGTGGGGATGGTGGGGACGGAGTCACCTAGTGCAG | 3470 fluorescence intensity (a.u.) |
| ATCCACATAGAGTAGCAGGTAGACCATATCAGCACCGTGGCGGAGTCACCTAGTGCAG | 3320 fluorescence intensity (a.u.) |
| CTGTCACGCTGACATCACTCCTCTCCTCCACCATGGCTTGCGGAGTCACCTAGTGCAG | 9570 fluorescence intensity (a.u.) |
| ACAAAATTTTCATCGTCATCCACGATCCAACCACCAGCTGCGGAGTCACCTAGTGCAG | 4970 fluorescence intensity (a.u.) |
| TTGGTGGCGGAAAGCCGCGACACGTTGGCGATGACGGGGACGGAGTCACCTAGTGCAG | 11200 fluorescence intensity (a.u.) |
| GAATGGTATCAGGGTGGTTGAACAAGAACAAAGGCCACATCGGAGTCACCTAGTGCAG | 3730 fluorescence intensity (a.u.) |
| GATCTTGATGAGTTATACCACTTTATTGTTGATGACCTTTCGGAGTCACCTAGTGCAG | 4850 fluorescence intensity (a.u.) |
| CAACCAATCAATCACATACGTGGACAACTGCAGAAAATGCCGGAGTCACCTAGTGCAG | 5610 fluorescence intensity (a.u.) |
| CGGCTTTGATGACTCGACGGTGAATATTAAGGAAACGCCTCGGAGTCACCTAGTGCAG | 7140 fluorescence intensity (a.u.) |
| GCGCGCGCCCGCATCATTGCGCCATCACTCTCTCGCTCGCCGGAGTCACCTAGTGCAG | 29500 fluorescence intensity (a.u.) |
| CTTAATTTCAGCTTACTGATCAGTGATCACTGAGCTAGCTCGGAGTCACCTAGTGCAG | 5910 fluorescence intensity (a.u.) |
| TGCCTGGCATGGGATGTACACTAGAGTGCTTTGCATGGCACGGAGTCACCTAGTGCAG | 3370 fluorescence intensity (a.u.) |
| GTGGTTTCGAAGTGACGTAATAGTGGGTACTTAACGTGTACGGAGTCACCTAGTGCAG | 5400 fluorescence intensity (a.u.) |
| ACATTTGCTAACGTGTAGTATGTGTGTAGTGCCATGTGTTCGGAGTCACCTAGTGCAG | 8150 fluorescence intensity (a.u.) |

Reprinted at random: two entries already listed, in no set order.

| Sequence | binding signal |
| --- | --- |
| GCGCGCGCCCGCATCATTGCGCCATCACTCTCTCGCTCGCCGGAGTCACCTAGTGCAG | 29500 fluorescence intensity (a.u.) |
| TGTTTTAAAATTCTGTAGTGGTGACGGTGACTCCAACCCTCGGAGTCACCTAGTGCAG | 5920 fluorescence intensity (a.u.) |
